The text below walks through data of publication PMC10212096.

By UniProt entry, the sequences of proteins in these tests, tags left out.
UniProt P93003: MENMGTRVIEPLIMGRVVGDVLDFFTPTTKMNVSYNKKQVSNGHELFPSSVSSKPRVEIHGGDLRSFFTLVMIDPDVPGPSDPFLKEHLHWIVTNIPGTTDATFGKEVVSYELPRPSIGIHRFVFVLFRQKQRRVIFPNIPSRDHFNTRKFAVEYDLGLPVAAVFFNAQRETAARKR
UniProt Q9SXZ2: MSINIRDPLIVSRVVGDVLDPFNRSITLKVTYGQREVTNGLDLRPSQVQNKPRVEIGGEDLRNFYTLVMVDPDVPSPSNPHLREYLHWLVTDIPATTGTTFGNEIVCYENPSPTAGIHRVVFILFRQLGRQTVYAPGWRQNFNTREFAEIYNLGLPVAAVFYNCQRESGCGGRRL

The target in test [1] is TERMINAL FLOWER 1 (TFL1), DNA-binding-domain fusion in pDEST32 (Arabidopsis thaliana) (UniProt P93003). The experiment in a line: two-hybrid; bZIPs in pDEST22 (activation domain), FT and TFL1 in pDEST32 (DNA-binding domain); yeast PJ69-4A; growth on SD -L-W-H plates, 30°C, six days.
The target of test [2] is FLOWERING LOCUS T (FT), DNA-binding-domain fusion in pDEST32 (Arabidopsis thaliana) (UniProt Q9SXZ2). The description is as above.
In test [3] the target is TERMINAL FLOWER 1 (TFL1), DNA-binding-domain fusion in pDEST32 (Arabidopsis thaliana), P93003. The description is as above. The conditions noted are these: remark: other sources report otherwise.
Test [4] has as its target FLOWERING LOCUS T (FT), DNA-binding-domain fusion in pDEST32 (Arabidopsis thaliana), Q9SXZ2. The test is described as above. The conditions noted are these: remark: other sources report otherwise.
In test [5] the target is FT with C-terminal GFP (Arabidopsis thaliana), Q9SXZ2. As to the kind of experiment: co-IP; co-agroinfiltration of N. benthamiana leaves in pairs; GFP-tagged FT or TFL1 precipitated with anti-GFP nanobody beads (GFP-trapA); 5xMyC-tagged proteins detected with anti-MyC. The conditions noted are these: remark: other sources report otherwise.
Test [6] concerns the target TFL1 with C-terminal GFP (Arabidopsis thaliana), P93003. The test is described as above. The conditions noted are these: remark: other sources report otherwise.
The target in test [7] is TFL1 with C-terminal GFP (Arabidopsis thaliana) (UniProt P93003). The test is described as above.
The target in test [8] is FT with C-terminal GFP (Arabidopsis thaliana) (UniProt Q9SXZ2). The description is as above.
In test [9] the target is FT:cYFP (Arabidopsis thaliana) (UniProt Q9SXZ2). The experiment in a line: split reporter; BiFC in N. benthamiana leaves; nYFP fusions with FT:cYFP and nuclear marker H2B:mCHERRY; YFP/mCHERRY ratio of n>150 nuclei, two replicates.
Test [10] concerns the target FLOWERING LOCUS T (FT), DNA-binding-domain fusion in pGBKT7-GW (Arabidopsis thaliana) (UniProt Q9SXZ2). The experiment in a line: two-hybrid; bZIPs in pGADT7-GW (AD), FT in pGBKT7-GW (BD); performed as in ref. 58 (S2 Fig).

Substitutions are numbered along the chain they refer to. Names may count otherwise. No constants are given. Whether binding was seen depends on the method and setting. For some of these results: In cells and extracts the contact can be indirect. Some results given as binding are weak or reduced against the parent protein; the word gives no strength. Tags and fused reporters may be left off the sequences shown.

B1: FD PARALOGUE (FDP), activation-domain fusion in pDEST22 (protein, UniProt Q7PCC6 1-234)
chain: MLSSAKHNKINNHSAFSISSSSSSLSTSSSLGHNKSQVTMEEVWKEINLGSLHYHRQLNIGHEPMLKNQNPNNSIFQDFLNMPLNQPPPPPPPPSSSTIVTALYGSLPLPPPATVLSLNSGVGFEFLDTTENLLASNPRSFEESAKFGCLGKKRGQDSDDTRGDRRYKRMIKNRESAARSRARKQAYTNELELEIAHLQTENARLKIQQEQLKIAEATQNQVKKTLQRSSTAPF
Consider B1, for which the binding entry in test [1] and in test [2] was “binds” each time.

B2: bZIP transcription factor FD, activation-domain fusion in pDEST22, Q84JK2 1-285 (protein)
chain: MLSSAKHQRNHRLSATNKNQTLTKVSSISSSSPSSSSSSSSTSSSSPLPSQDSQAQKRSLVTMEEVWNDINLASIHHLNRHSPHPQHNHEPRFRGQNHHNQNPNSIFQDFLKGSLNQEPAPTSQTTGSAPNGDSTTVTVLYSSPFPPPATVLSLNSGAGFEFLDNQDPLVTSNSNLHTHHHLSNAHAFNTSFEALVPSSSFGKKRGQDSNEGSGNRRHKRMIKNRESAARSRARKQAYTNELELEVAHLQAENARLKRQQDQLKMAAAIQQPKKNTLQRSSTAPF
As for B2, the binding result in [3] and in test [4] was “binds” each time.

B3: FD with N-terminal 5xMyC, Q84JK2 1-285 (protein)
chain: B2 chain
With B3, the binding entry in test [5] and in [6] was “binds” in each case.

B4: FD^T282A with N-terminal 5xMyC (protein, UniProt Q84JK2 1-285)
chain: B2 chain with T282A
As to B4, the binding entry in test [7] was “binds”.

B5: FD^T282A with N-terminal 5xMyC, Q84JK2 1-285 (protein)
chain: B2 chain with T282A
Turning to B5, in [5], the binding result is listed as “binds”.

B6: AREB3^S294A, activation-domain fusion in pDEST22 (protein, UniProt Q9LES3 1-297)
chain: MDSQRGIVEQAKSQSLNRQSSLYSLTLDEVQNHLGSSGKALGSMNLDELLKSVCSVEANQPSSMAVNGGAAAQEGLSRQGSLTLPRDLSKKTVDEVWKDIQQNKNGGSAHERRDKQPTLGEMTLEDLLLKAGVVTETIPGSNHDGPVGGGSAGSGAGLGQNITQVGPWIQYHQLPSMPQPQAFMPYPVSDMQAMVSQSSLMGGLSDTQTPGRKRVASGEVVEKTVERRQKRMIKNRESAARSRARKQAYTHELEIKVSRLEEENERLRKQKEVEKILPSVPPPDPKRQLRRTSAAPF
Take B6: the binding entry in test [1] is “binds”.

B7: AREB3^S294A with N-terminal 5xMyC (protein, UniProt Q9LES3 1-297)
chain: B6 chain
With B7, the binding entry in test [8] and in [7] was “binds” throughout.

B8: AREB3 with N-terminal 5xMyC (protein, UniProt Q9LES3 1-297)
chain: B6 chain with A294S
For B8, the binding result in test [8] and in test [7] was “binds” in each case.

B9: nYFP:AREB3 (protein, UniProt Q9LES3 1-297)
chain: B6 chain with A294S
With B9, the binding entry in test [9] was “binds”.

B10: bZIP transcription factor AREB3, activation-domain fusion in pDEST22 (protein, UniProt Q9LES3 1-297)
chain: B6 chain with A294S
Consider B10, for which the binding entry in [1] and in test [2] was “binds” each time.

B11: AREB3, activation-domain fusion in pGADT7-GW (protein, UniProt Q9LES3 1-297)
chain: B6 chain with A294S
With B11, in test [10], the binding entry is “binds”.

B12: AREB3^ΔSAP, truncated version of AREB3 (R291*) lacking the SAP motif, two-hybrid fusion (domain or fragment, UniProt Q9LES3 1-290)
chain: MDSQRGIVEQAKSQSLNRQSSLYSLTLDEVQNHLGSSGKALGSMNLDELLKSVCSVEANQPSSMAVNGGAAAQEGLSRQGSLTLPRDLSKKTVDEVWKDIQQNKNGGSAHERRDKQPTLGEMTLEDLLLKAGVVTETIPGSNHDGPVGGGSAGSGAGLGQNITQVGPWIQYHQLPSMPQPQAFMPYPVSDMQAMVSQSSLMGGLSDTQTPGRKRVASGEVVEKTVERRQKRMIKNRESAARSRARKQAYTHELEIKVSRLEEENERLRKQKEVEKILPSVPPPDPKRQLR
In the case of B12, the binding entry in [10] was “binds”.

B13: nYFP:AREB3^ΔSAP (domain or fragment, UniProt Q9LES3 1-290)
chain: B12 chain
With B13, the binding entry in test [9] is given as “binds”.
